The target in one assay is Flag-NEK7 S260A (UniProt Q9ES74). Description: co-IP; HEK293T cells transfected with tagged plasmids, lysed 24 h later in IP buffer (50 mM Tris HCl pH 7.4, 50 mM EDTA, 200 mM NaCl, 1% NP-40); anti-Flag affinity gel or anti-c-Myc agarose, 2 h at 4 °C; with or without 10 µM GSK461364 for 1 h.
The next assay has as its target Flag-NEK7 WT (UniProt Q9ES74). The description is as above.
The next assay addresses Flag-NEK7 S221A (UniProt Q9ES74). The assay is described as above.
Assay [1] has as its target Recombinant mouse NEK7-GST (mouse) (UniProt Q9ES74). Put plainly: pull-down; GST or NEK7-GST on glutathione resin, incubated with PLK1-his for 2 h at 4 °C in 20 mM Tris-HCl pH 7.9, 150 mM NaCl, 0.5 mM EDTA, 10% glycerol, 1 mM DTT, 0.1% Triton X-100; immunoblot; both purified. (In general: Immunoblotting shows a protein as a band on a membrane.)
The next assay deals with Myc-NEK7 (UniProt Q9ES74). Description: co-IP; HEK293T cells transfected with tagged plasmids, lysed 24 h later in IP buffer (50 mM Tris HCl pH 7.4, 50 mM EDTA, 200 mM NaCl, 1% NP-40); anti-Flag affinity gel or anti-c-Myc agarose, 2 h at 4 °C; with or without 10 µM GSK461364 for 1 h.
Assay [2] concerns the target NEK7, endogenous (mouse (endogenous in mouse peritoneal macrophages)) (UniProt Q9ES74). Put plainly: proximity ligation; Duolink PLA in fixed mouse peritoneal macrophages primed with LPS (100 ng/mL, 3 h) and stimulated with nigericin or ATP.
Assay [3] shares this target. Put plainly: co-IP; endogenous proteins in lysates of mouse peritoneal macrophages (IP buffer: 50 mM Tris HCl pH 7.4, 50 mM EDTA, 200 mM NaCl, 1% NP-40); primary antibody overnight at 4 °C, protein A/G-agarose; cells untreated or LPS 100 ng/mL 3 h, then nigericin 10 µM 1 h; with si-Ctrl or si-PLK1, with or without 10 µM GSK461364.
The next assay deals with T1, Myc-NLRP3, Q8R4B8.
T1 chain: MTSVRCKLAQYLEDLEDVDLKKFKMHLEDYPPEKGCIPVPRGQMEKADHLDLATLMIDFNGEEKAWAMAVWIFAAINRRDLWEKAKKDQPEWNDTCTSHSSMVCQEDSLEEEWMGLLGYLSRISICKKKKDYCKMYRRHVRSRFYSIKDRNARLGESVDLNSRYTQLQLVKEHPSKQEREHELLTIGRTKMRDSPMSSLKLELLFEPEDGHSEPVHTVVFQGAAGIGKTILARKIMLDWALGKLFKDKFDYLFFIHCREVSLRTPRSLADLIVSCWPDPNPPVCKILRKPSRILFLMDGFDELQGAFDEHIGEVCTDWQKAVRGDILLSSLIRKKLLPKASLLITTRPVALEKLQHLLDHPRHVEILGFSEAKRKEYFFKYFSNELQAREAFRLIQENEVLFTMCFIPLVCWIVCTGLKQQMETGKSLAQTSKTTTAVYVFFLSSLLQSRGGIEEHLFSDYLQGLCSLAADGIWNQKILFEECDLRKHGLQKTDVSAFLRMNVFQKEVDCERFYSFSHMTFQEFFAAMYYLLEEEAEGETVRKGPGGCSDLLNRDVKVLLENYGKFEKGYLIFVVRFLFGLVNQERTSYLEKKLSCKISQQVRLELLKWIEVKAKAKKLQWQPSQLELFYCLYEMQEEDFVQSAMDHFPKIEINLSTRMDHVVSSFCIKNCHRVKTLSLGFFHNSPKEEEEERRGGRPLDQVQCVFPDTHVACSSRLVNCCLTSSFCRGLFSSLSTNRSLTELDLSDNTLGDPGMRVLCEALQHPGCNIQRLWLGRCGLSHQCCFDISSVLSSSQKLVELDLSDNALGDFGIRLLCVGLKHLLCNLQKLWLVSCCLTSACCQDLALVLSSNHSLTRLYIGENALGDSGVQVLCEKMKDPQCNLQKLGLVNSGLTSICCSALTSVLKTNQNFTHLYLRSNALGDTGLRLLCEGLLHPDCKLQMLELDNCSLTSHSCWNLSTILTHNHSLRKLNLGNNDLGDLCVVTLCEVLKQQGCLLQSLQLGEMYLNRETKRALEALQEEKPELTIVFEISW
Put plainly: co-IP; HEK293T cells transfected with tagged plasmids, lysed 24 h later in IP buffer (50 mM Tris HCl pH 7.4, 50 mM EDTA, 200 mM NaCl, 1% NP-40); anti-Flag affinity gel or anti-c-Myc agarose, 2 h at 4 °C; with or without 10 µM GSK461364 for 1 h. To be noted: remark: other sources report otherwise.

Chains of the proteins cited; added tags and fusions are not shown. Lines headed by an entry give the natural chain unless they say otherwise; changes in a name come on top.
UniProt Q9ES74: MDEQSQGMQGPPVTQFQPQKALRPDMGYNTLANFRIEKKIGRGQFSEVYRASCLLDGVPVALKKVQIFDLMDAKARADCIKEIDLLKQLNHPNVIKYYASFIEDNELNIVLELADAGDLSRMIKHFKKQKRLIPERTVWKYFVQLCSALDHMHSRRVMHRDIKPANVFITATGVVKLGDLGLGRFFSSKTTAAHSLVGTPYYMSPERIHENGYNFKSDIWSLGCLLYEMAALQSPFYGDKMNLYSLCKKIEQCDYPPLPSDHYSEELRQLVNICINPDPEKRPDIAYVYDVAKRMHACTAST

Assay [4] concerns the target T2, NLRP3, endogenous (mouse (endogenous in mouse peritoneal macrophages)), Q8R4B8.
T2 chain: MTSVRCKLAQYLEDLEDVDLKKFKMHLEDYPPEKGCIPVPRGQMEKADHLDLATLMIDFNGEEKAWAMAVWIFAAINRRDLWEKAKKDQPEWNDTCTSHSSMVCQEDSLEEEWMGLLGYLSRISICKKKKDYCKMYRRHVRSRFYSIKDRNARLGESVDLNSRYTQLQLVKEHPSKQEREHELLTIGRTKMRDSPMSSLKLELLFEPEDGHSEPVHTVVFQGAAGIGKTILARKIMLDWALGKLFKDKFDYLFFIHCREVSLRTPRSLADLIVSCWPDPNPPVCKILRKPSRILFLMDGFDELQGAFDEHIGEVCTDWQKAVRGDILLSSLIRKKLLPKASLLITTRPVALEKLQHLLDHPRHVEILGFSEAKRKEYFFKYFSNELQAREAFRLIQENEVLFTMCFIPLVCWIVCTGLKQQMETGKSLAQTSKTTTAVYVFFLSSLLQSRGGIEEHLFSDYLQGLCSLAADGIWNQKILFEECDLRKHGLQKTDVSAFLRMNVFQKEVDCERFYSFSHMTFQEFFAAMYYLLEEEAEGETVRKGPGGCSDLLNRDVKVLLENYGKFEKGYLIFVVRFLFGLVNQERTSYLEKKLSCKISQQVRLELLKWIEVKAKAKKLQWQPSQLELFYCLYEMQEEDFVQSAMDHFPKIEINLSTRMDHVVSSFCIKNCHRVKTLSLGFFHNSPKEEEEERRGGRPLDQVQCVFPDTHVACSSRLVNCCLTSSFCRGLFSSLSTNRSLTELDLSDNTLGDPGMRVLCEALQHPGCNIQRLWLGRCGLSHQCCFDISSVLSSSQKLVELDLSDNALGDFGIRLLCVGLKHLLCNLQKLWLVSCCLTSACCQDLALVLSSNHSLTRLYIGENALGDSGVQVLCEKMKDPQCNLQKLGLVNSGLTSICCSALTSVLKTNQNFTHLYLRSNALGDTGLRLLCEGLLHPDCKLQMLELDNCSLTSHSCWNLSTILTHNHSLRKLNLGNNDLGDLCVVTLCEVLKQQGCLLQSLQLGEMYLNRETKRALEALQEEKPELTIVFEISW
Put plainly: co-IP; endogenous proteins in lysates of mouse peritoneal macrophages (IP buffer: 50 mM Tris HCl pH 7.4, 50 mM EDTA, 200 mM NaCl, 1% NP-40); primary antibody overnight at 4 °C, protein A/G-agarose; cells untreated or LPS 100 ng/mL 3 h, then nigericin 10 µM 1 h; with si-Ctrl or si-PLK1, with or without 10 µM GSK461364. Conditions: remark: other sources report otherwise.

These are yes or no findings as the source states them, for the method shown. For part of these data: In cells and extracts the contact can be indirect. Some binding calls cover weakened binding; strength is not graded here. For part of these data: Tags and fused reporters may be left off the sequences shown.

The results in this text go back to publication PMC12667451.

With “Myc-PLK1 (Polo-like kinase 1) (from UniProt Q07832 1-603) (enzyme)”, the binding entry with Flag-NEK7 S260A, in the assay with Flag-NEK7 WT and in the assay with Flag-NEK7 S221A was “binds” throughout.

For the molecule “Recombinant mouse PLK1-his (from UniProt Q07832 1-603) (enzyme)”, in assay [1], the binding result is given as “binds”.

With “Flag-PLK1 (Polo-like kinase 1) (from UniProt Q07832 1-603) (enzyme)”, the binding result in the assay with Myc-NEK7 was “binds”.

For “PLK1 (Polo-like kinase 1), endogenous (from UniProt Q07832 1-603) (enzyme)”, the binding result in assay [2] and in [3] was “binds” in each case.

B1: Flag-PLK1 (Polo-like kinase 1), Q07832 1-603 (enzyme)
chain: MNAAAKAGKLARAPADLGKGGVPGDAVPGAPVAAPLAKEIPEVLVDPRSRRQYVRGRFLGKGGFAKCFEISDADTKEVFAGKIVPKSLLLKPHQKEKMSMEISIHRSLAHQHVVGFHDFFEDSDFVFVVLELCRRRSLLELHKRRKALTEPEARYYLRQIVLGCQYLHRNQVIHRDLKLGNLFLNEDLEVKIGDFGLATKVEYEGERKKTLCGTPNYIAPEVLSKKGHSFEVDVWSIGCIMYTLLVGKPPFETSCLKETYLRIKKNEYSIPKHINPVAASLIQKMLQTDPTARPTIHELLNDEFFTSGYIPARLPITCLTIPPRFSIAPSSLDPSSRKPLKVLNKGVENPLPDRPREKEEPVVRETNEAIECHLSDLLQQLTSVNASKPSERGLVRQEEAEDPACIPIFWVSKWVDYSDKYGLGYQLCDNSVGVLFNDSTRLILYNDGDSLQYIERDGTESYLTVSSHPNSLMKKITLLNYFRNYMSEHLLKAGANITPREGDELARLPYLRTWFRTRSAIILHLSNGTVQINFFQDHTKLILCPLMAAVTYINEKRDFQTYRLSLLEEYGCCKELASRLRYARTMVDKLLSSRSASNRLKAS
On to B1, for which the binding result with Myc-NLRP3, Q8R4B8 is on record as “no binding”.

B2: PLK1 (Polo-like kinase 1), endogenous, Q07832 1-603 (enzyme)
chain: MNAAAKAGKLARAPADLGKGGVPGDAVPGAPVAAPLAKEIPEVLVDPRSRRQYVRGRFLGKGGFAKCFEISDADTKEVFAGKIVPKSLLLKPHQKEKMSMEISIHRSLAHQHVVGFHDFFEDSDFVFVVLELCRRRSLLELHKRRKALTEPEARYYLRQIVLGCQYLHRNQVIHRDLKLGNLFLNEDLEVKIGDFGLATKVEYEGERKKTLCGTPNYIAPEVLSKKGHSFEVDVWSIGCIMYTLLVGKPPFETSCLKETYLRIKKNEYSIPKHINPVAASLIQKMLQTDPTARPTIHELLNDEFFTSGYIPARLPITCLTIPPRFSIAPSSLDPSSRKPLKVLNKGVENPLPDRPREKEEPVVRETNEAIECHLSDLLQQLTSVNASKPSERGLVRQEEAEDPACIPIFWVSKWVDYSDKYGLGYQLCDNSVGVLFNDSTRLILYNDGDSLQYIERDGTESYLTVSSHPNSLMKKITLLNYFRNYMSEHLLKAGANITPREGDELARLPYLRTWFRTRSAIILHLSNGTVQINFFQDHTKLILCPLMAAVTYINEKRDFQTYRLSLLEEYGCCKELASRLRYARTMVDKLLSSRSASNRLKAS
B2: the binding entry in [4] is given as “no binding”.
